Experimental findings from PMC4250520, “Calcium-induced conformational changes of the regulatory domain of human mitochondrial aspartate/glutamate carriers” (Nature Communications, 2014) are described below.

Experiment [1] has as its target carrier domain of citrin (human) (UniProt Q9UJS0). Description: SEC-MALLS; carrier domain in lauryl maltose neopentyl glycol; protein partially aggregated; both purified.
For experiment [2] the target is unchanged. Kind of experiment: SEC-MALLS; Superose 6 10/300 GL; 20 mM Hepes pH 8.0, 150 mM NaCl, 2.5 mM DTT, 0.03% (w/v) DDM, 0.03 mg/ml TOCL; protein-conjugate (three-detector) method; both purified.

These are yes or no findings as the source states them, for the method shown.

B1: carrier domain of citrin (domain or fragment, UniProt Q9UJS0 320-612)
chain: PVLLQVAESAYRFGLGSVAGAVGATAVYPIDLVKTRMQNQRSTGSFVGELMYKNSFDCFKKVLRYEGFFGLYRGLLPQLLGVAPEKAIKLTVNDFVRDKFMHKDGSVPLAAEILAGGCAGGSQVIFTNPLEIVKIRLQVAGEITTGPRVSALSVVRDLGFFGIYKGAKACFLRDIPFSAIYFPCYAHVKASFANEDGQVSPGSLLLAGAIAGMPAASLVTPADVIKTRLQVAARAGQTTYSGVIDCFRKILREEGPKALWKGAGARVFRSSPQFGVTLLTYELLQRWFYIDFG
Regarding B1, the binding entry in experiment [1] and in experiment [2] was “no binding” in each case.
